Assay results reported in doi:10.1101/2022.05.17.492379.
The exact form of at least one protein or probe is not confirmed. For some of these results: The comparison behind a weaker result is the experiment's own reference, which may not be listed here. At least one verdict was read from the data and is not stated in words by the source.

Sequences of proteins named here, by UniProt entry; tags and fusion partners are left off. A change or cut given only in a name is not applied to a line headed by its entry.
UniProt P45448: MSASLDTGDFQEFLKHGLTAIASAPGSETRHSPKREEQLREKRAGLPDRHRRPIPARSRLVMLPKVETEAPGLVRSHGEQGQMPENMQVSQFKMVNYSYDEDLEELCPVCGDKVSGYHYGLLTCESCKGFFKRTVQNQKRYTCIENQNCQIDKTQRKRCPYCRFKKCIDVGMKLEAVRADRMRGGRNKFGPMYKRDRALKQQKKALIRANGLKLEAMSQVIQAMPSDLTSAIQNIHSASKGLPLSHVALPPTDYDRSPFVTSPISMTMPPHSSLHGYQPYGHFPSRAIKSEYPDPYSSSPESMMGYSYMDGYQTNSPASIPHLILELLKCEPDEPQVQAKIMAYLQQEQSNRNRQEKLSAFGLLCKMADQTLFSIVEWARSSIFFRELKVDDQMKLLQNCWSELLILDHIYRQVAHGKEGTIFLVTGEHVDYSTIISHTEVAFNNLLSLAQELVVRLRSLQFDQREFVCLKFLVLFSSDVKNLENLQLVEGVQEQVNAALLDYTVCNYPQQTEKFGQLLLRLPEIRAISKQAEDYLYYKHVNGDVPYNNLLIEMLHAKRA
UniProt Q61539: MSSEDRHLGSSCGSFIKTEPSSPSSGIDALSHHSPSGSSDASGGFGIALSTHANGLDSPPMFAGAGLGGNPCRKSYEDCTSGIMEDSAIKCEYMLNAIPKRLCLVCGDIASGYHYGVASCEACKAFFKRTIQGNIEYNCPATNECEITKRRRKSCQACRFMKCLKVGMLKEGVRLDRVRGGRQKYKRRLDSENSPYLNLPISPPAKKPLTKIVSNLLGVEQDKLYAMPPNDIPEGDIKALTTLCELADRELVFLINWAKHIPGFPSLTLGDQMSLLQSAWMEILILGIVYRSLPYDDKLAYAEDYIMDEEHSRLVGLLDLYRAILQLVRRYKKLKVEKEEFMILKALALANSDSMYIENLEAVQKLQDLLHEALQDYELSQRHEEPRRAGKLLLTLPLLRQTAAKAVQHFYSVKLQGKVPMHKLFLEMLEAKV

Assays:
[1] = molecular target: Nr5a2 (Mus musculus) (UniProt P45448); experiment: EMSA; settings: competitor DNA present; residues 1-560
[2] = molecular target: Esrrb (Mus musculus) (UniProt Q61539); experiment: EMSA; settings: competitor DNA present; residues 1-433

GAGAGAGTCAAGGCCATGGCTCACT (double strand) [Nr5a2 motif DNA]
binding result [1]: binds
binding result [2]: binds more weakly

GAGAGAGTCAAGGTCATGGCTCACT (double strand) [Esrrb motif DNA]
binding result [1]: binds
binding result [2]: binds
